# Test results: article PMC3842841, “VacA, the vacuolating cytotoxin of Helicobacter pylori, binds to multimerin 1 on human platelets” (Thrombosis Journal, 2013)
# The chains behind the UniProt entries cited, without tags or fusion partners. Where a name states a change or a piece, a line headed by the entry shows the natural chain unless it says otherwise. Residues count along the entry.
# UniProt Q48245: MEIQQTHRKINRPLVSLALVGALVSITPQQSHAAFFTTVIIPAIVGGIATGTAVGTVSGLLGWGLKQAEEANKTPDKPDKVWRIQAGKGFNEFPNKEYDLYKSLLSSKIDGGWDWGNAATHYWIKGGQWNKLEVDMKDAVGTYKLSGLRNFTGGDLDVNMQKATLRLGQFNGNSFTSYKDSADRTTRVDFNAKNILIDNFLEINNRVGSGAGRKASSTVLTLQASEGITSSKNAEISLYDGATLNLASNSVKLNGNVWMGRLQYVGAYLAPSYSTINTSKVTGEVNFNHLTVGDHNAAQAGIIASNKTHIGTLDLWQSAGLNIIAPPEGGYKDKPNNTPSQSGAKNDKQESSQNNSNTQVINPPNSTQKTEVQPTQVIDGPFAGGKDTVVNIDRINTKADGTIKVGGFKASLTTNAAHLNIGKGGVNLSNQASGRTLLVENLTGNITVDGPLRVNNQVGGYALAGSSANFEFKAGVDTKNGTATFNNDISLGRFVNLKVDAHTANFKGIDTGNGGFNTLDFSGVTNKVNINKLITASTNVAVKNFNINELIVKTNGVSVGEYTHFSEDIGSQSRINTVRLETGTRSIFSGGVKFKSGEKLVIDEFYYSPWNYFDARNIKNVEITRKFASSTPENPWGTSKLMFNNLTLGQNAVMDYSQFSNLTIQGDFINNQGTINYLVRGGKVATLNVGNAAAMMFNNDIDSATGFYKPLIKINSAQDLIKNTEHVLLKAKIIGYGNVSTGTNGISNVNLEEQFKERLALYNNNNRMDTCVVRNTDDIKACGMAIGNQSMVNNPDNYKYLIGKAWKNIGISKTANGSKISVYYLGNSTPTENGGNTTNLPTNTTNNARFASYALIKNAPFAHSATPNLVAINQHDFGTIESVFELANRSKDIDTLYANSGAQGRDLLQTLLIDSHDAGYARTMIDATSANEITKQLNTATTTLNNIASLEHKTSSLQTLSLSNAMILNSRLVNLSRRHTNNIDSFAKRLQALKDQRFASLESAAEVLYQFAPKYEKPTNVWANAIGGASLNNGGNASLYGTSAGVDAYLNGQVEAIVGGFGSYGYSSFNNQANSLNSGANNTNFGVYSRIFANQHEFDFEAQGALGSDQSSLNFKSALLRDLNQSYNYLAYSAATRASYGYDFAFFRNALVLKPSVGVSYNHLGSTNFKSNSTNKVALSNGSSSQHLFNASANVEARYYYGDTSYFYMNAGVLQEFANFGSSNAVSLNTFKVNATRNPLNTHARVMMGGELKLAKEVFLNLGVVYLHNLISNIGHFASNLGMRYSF
# UniProt P23471, residues 25-2315: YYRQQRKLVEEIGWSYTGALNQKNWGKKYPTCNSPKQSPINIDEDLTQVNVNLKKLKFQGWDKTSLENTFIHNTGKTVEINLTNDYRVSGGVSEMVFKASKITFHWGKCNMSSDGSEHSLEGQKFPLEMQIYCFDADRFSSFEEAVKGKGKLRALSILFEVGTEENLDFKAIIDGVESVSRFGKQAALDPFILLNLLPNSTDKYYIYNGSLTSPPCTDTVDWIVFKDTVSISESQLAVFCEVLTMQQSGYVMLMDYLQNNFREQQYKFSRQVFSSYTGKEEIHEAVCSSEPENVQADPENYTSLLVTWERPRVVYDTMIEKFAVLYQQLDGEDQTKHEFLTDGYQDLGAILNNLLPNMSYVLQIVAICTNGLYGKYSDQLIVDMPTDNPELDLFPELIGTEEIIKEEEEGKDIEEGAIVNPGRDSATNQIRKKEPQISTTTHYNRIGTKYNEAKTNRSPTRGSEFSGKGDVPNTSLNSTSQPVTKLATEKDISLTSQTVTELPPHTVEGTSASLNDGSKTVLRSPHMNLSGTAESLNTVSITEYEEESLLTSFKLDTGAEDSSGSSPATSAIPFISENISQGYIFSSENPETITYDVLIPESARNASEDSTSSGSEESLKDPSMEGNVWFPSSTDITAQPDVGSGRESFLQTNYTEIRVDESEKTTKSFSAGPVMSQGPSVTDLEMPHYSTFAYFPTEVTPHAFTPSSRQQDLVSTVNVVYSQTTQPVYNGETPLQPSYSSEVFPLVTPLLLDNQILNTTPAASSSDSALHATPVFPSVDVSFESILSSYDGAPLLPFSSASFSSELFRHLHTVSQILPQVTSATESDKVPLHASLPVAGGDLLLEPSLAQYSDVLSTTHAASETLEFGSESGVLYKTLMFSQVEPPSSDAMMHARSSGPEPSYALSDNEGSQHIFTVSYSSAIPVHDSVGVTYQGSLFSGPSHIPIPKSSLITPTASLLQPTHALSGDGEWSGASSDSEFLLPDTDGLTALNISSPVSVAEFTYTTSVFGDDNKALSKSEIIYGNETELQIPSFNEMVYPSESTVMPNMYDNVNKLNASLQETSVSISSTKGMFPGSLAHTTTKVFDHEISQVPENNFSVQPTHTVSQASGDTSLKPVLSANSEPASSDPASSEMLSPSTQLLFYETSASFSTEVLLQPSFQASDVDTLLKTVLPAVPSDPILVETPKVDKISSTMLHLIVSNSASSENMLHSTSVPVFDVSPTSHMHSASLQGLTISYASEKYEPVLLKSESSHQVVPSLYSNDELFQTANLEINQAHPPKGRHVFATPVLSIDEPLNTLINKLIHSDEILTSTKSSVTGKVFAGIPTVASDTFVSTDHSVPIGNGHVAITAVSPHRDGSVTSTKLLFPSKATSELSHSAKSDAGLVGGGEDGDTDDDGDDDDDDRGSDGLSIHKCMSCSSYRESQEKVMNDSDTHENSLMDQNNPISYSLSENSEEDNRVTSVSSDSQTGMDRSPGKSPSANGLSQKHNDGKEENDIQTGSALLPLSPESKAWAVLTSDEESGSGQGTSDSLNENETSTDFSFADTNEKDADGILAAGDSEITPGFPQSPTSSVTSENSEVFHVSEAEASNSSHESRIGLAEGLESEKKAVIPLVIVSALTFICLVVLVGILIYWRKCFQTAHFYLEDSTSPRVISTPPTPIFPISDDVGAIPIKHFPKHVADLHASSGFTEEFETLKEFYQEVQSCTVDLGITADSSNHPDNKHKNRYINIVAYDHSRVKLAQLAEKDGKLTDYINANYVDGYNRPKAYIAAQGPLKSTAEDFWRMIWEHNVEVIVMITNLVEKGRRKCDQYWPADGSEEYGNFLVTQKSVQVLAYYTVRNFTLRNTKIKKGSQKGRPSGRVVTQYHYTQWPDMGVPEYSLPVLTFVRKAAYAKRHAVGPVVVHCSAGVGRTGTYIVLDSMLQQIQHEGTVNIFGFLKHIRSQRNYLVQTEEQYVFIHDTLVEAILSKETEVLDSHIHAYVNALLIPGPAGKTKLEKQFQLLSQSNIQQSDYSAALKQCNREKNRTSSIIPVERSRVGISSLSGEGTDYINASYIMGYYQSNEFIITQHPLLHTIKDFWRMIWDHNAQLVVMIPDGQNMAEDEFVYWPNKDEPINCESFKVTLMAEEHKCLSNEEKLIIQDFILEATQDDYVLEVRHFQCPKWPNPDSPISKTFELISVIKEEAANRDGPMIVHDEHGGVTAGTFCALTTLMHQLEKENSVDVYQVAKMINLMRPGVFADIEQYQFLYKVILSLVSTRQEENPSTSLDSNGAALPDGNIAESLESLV
# UniProt P05107, residues 23-769: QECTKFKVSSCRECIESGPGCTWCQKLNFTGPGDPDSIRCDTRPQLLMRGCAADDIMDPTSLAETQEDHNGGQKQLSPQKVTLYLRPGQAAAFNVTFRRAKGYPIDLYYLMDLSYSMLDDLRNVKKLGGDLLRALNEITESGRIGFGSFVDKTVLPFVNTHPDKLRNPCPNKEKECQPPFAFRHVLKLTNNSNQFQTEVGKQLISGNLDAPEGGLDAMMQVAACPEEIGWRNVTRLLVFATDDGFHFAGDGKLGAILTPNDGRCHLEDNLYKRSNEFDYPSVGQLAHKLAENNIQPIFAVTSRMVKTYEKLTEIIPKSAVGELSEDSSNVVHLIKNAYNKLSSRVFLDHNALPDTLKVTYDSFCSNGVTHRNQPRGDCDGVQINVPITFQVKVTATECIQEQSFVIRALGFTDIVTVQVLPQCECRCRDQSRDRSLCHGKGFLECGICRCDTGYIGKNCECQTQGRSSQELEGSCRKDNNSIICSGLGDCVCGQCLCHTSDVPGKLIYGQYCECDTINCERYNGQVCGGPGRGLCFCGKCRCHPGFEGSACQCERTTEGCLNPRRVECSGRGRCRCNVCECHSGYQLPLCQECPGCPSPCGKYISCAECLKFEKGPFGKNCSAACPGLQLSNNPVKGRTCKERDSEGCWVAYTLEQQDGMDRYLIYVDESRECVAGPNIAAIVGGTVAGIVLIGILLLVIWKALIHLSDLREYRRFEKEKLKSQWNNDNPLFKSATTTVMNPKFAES
# Results are given in words; binding and its absence hold for the method and conditions named. Binding seen in cells or lysates may run through a third protein. A yes stands for co-enrichment or nearness to the bait. Other partners may have been found. A no says only that the protein was not detected with the bait.
# B1: multimerin 1 (protein, UniProt Q13201 20-1228)
# chain: LNNSKHSWTIPEDGNSQKTMPSASVPPNKIQSLQILPTTRVMSAEIATTPEARTSEDSLLKSTLPPSETSAPAEGVRNQTLTSTEKAEGVVKLQNLTLPTNASIKFNPGAESVVLSNSTLKFLQSFARKSNEQATSLNTVGGTGGIGGVGGTGGVGNRAPRETYLSRGDSSSSQRTDYQKSNFETTRGKNWCAYVHTRLSPTVILDNQVTYVPGGKGPCGWTGGSCPQRSQKISNPVYRMQHKIVTSLDWRCCPGYSGPKCQLRAQEQQSLIHTNQAESHTAVGRGVAEQQQQQGCGDPEVMQKMTDQVNYQAMKLTLLQKKIDNISLTVNDVRNTYSSLEGKVSEDKSREFQSLLKGLKSKSINVLIRDIVREQFKIFQNDMQETVAQLFKTVSSLSEDLESTRQIIQKVNESVVSIAAQQKFVLVQENRPTLTDIVELRNHIVNVRQEMTLTCEKPIKELEVKQTHLEGALEQEHSRSILYYESLNKTLSKLKEVHEQLLSTEQVSDQKNAPAAESVSNNVTEYMSTLHENIKKQSLMMLQMFEDLHIQESKINNLTVSLEMEKESLRGECEDMLSKCRNDFKFQLKDTEENLHVLNQTLAEVLFPMDNKMDKMSEQLNDLTYDMEILQPLLEQGASLRQTMTYEQPKEAIVIRKKIENLTSAVNSLNFIIKELTKRHNLLRNEVQGRDDALERRINEYALEMEDGLNKTMTIINNAIDFIQDNYALKETLSTIKDNSEIHHKCTSDMETILTFIPQFHRLNDSIQTLVNDNQRYNFVLQVAKTLAGIPRDEKLNQSNFQKMYQMFNETTSQVRKYQQNMSHLEEKLLLTTKISKNFETRLQDIESKVTQTLIPYYISVKKGSVVTNERDQALQLQVLNSRFKALEAKSIHLSINFFSLNKTLHEVLTMCHNASTSVSELNATIPKWIKHSLPDIQLLQKGLTEFVEPIIQIKTQAALSNLTCCIDRSLPGSLANVVKSQKQVKSLPKKINALKKPTVNLTTVLIGRTQRNTDNIIYPEEYSSCSRHPCQNGGTCINGRTSFTCACRHPFTGDNCTIKLVEENALAPDFSKGSYRYAPMVAFFASHTYGMTIPGPILFNNLDVNYGASYTPRTGKFRIPYLGVYVFKYTIESFSAHISGFLVVDGIDKLAFESENINSEIHCDRVLTGDALLELNYGQEVWLRLAKGTIPAKFPPVTTFSGYLLYRT
# modifications: biotin (surface labelling of the platelets)
# Molecular target: VacA, the vacuolating cytotoxin of Helicobacter pylori (Helicobacter pylori ATCC49503) (UniProt Q48245)
# Test: affinity purification with mass spectrometry; only the target purified
row,Molecule,binding
1,RPTPβ (from UniProt P23471 25-2315) (receptor),no binding
2,CD18 (from UniProt P05107 23-769) (receptor),no binding
3,B1,binds
